Changes are numbered by the printed parent chain. Results are given in words; binding and its absence hold for the method and conditions named. Binding seen in cells or lysates may run through a third protein. Some binding calls cover weakened binding; strength is not graded here.
Experiments:
[1] = molecular target: T1, Trx-h2-YN (Arabidopsis thaliana) (UniProt Q38879); test: split reporter; BiFC: YN and YC fusions co-expressed in N. benthamiana leaves by agroinfiltration; 2 days, then 4 °C or 22 °C for 6 h; confocal microscopy with NLS-RFP as nuclear marker
T1 sequence: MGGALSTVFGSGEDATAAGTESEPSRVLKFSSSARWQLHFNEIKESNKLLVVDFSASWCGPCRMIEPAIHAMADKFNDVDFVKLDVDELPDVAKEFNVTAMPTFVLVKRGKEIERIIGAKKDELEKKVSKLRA

Protein sequences, listed by entry. Tags and fused reporters are not part of them.
UniProt P93835: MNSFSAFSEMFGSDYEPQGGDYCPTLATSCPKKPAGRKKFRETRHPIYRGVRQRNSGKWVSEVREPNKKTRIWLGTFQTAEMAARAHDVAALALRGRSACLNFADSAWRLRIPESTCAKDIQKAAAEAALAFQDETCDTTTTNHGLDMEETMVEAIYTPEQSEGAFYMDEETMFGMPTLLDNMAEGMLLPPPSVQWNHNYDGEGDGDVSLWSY

[2] = molecular target: T2, Trx-h2(G/A)-YN (Arabidopsis thaliana) (UniProt Q38879); test: as above
T2 sequence: T1 sequence with G2A

[3] = molecular target: T1, Trx-h2-YN (Arabidopsis thaliana); test: condition: only leaves kept at 22 °C (no cold treatment); split reporter; as a3, leaves incubated at 22 °C without cold treatment

- binding [1]: binds
- binding [2]: binds
- binding [3]: no binding
Substance: YC-CBF1 (from UniProt P93835 1-213)
